Some of these results come from one statement about several compounds together. For at least one compound, name, drawing or mass did not settle the structure.
The molecules below were run on S. aureus ATCC 13709 (assay: Antibacterial susceptibility (MIC) in the presence of serum). Details: 50% mouse or rat serum versus no serum.
Format: cell-based
Description: Susceptibility of S. aureus strains to the known antibiotics and synthesized compounds was determined by following the guidelines set by NCCLS (M26-A). Compounds were diluted two-fold serially in DMSO and transferred to cation-adjusted Mueller Hinton broth (CAMHB; Becton Dickinson). 50 μL of compounds diluted in CAMHB was mixed with 100 μL of bacteria diluted in CAMHB in 96-well microtiter plates. The final concentration of micro-organisms in the assay was 5×10^5 c.f.u. per mL and the final concentration of DMSO in the assay was 1.25%. Assays were set up in duplicate and incubated at 37° C. for 18 h. The lowest concentration of compound that inhibited visible growth was reported as the minimum inhibitory concentration (MIC).
Susceptibility testing experiments were also carried out in the presence of serum.
These experiments were carried out similar to the susceptibility testing with the following modifications. 75 μL of compounds diluted in CAMHB was mixed with 75 μL of bacteria diluted in 100% serum from any given source (commercial pooled mouse serum (MS) and human serum (HS), Equitech-Bio Inc.) or diluted in 8% purified human serum albumin (HSA) (Calbiochem). The final concentration of animal serum in the assay was 50% and the final concentration of purified human serum albumin in the assay was 4%; the concentrations of all other components were identical to those described for susceptibility testing.

Row | SMILES | Increase of MIC in the presence of serum [×]
1 | CO[C@H]1/C=C/O[C@@]2(C)Oc3c(C)c(O)c4c(=O)c(c5oc6cc(N7CCN(CCOC(=O)CCC(=O)NC(P(=O)(O)O)P(=O)(O)O)CC7)cc(O)c6nc-5c4c3C2=O)NC(=O)/C(C)=C\C=C\[C@H](C)[C@H](O)[C@@H](C)[C@@H](O)[C@@H](C)[C@H](OC(C)=O)[C@@H]1C.N.N [Compound 62] | > 4
2 | CO[C@H]1/C=C/O[C@@]2(C)Oc3c(C)c(O)c4c(=O)c(c5oc6cc(N7CCC(OC(=O)CCC(=O)NC(P(=O)(O)O)P(=O)(O)O)CC7)cc(O)c6nc-5c4c3C2=O)NC(=O)/C(C)=C\C=C\[C@H](C)[C@H](O)[C@@H](C)[C@@H](O)[C@@H](C)[C@H](OC(C)=O)[C@@H]1C [Compound 68] | > 4
3 | CO[C@H]1/C=C/O[C@@]2(C)Oc3c(C)c(O)c4c(=O)c(c5oc6cc(N7CCN(CCC(=O)c8ccc(OCCCC(P(=O)(O)O)P(=O)(O)O)cc8)CC7)cc(O)c6nc-5c4c3C2=O)NC(=O)/C(C)=C\C=C\[C@H](C)[C@H](O)[C@@H](C)[C@@H](O)[C@@H](C)[C@H](OC(C)=O)[C@@H]1C [Compound 71] | > 4
4 | CCN(CC)CC.CCN(CC)CC.CO[C@H]1/C=C/O[C@@]2(C)Oc3c(C)c(O)c4c(=O)c(c5oc6cc(N7CCN(CC(C)C)CC7)cc(O)c6nc-5c4c3C2=O)NC(=O)/C(C)=C\C=C\[C@H](C)[C@H](OC(=O)CCC(=O)NCCC(=O)NC(P(=O)(O)O)P(=O)(O)O)[C@@H](C)[C@@H](O)[C@@H](C)[C@H](OC(C)=O)[C@@H]1C [Compound 78, 21-O-(3-(2-((bisphosphonomethyl)carbamoyl)ethylcarbamoyl)propanoyl)-1′,4-Didehydro-1-deoxy-1,4-dihydro-3′-hydroxy-5′-[4-(2-methylpropyl)-1-piperazinyl]-1-oxorifamycin VIII] | > 4
5 | CO[C@H]1/C=C/O[C@@]2(C)Oc3c(C)c(O)c4c(=O)c(c5oc6cc(N7CCN(CC(C)C)CC7)cc(O)c6nc-5c4c3C2=O)NC(=O)/C(C)=C\C=C\[C@H](C)[C@H](OC(=O)CCCOC(=O)CCC(=O)NC(P(=O)(O)O)P(=O)(O)O)[C@@H](C)[C@@H](O)[C@@H](C)[C@H](OC(C)=O)[C@@H]1C [Compound 81, 21-O-(4-((3-(bisphosphonomethyl)carbamoyl)propanoyloxy)butanoyl)-1′,4-Didehydro-1-deoxy-1,4-dihydro-3′-hydroxy-5′-[4-(2-methylpropyl)-1-piperazinyl]-1-oxorifamycin VIII] | > 4
6 | CO[C@H]1/C=C/O[C@@]2(C)Oc3c(C)c(O)c4c(=O)c(c5oc6cc(N7CCN(CC(C)C)CC7)cc(O)c6nc-5c4c3C2=O)NC(=O)/C(C)=C\C=C\[C@H](C)[C@H](OC(=O)COC(=O)CCC(=O)NC(P(=O)(O)O)P(=O)(O)O)[C@@H](C)[C@@H](O)[C@@H](C)[C@H](OC(C)=O)[C@@H]1C [Compound 84, 21-O-(2-((3-(bisphosphonomethyl)carbamoyl)propanoyloxy)acetyl)-1′,4-Didehydro-1-deoxy-1,4-dihydro-3′-hydroxy-5′-[4-(2-methylpropyl)-1-piperazinyl]-1-oxorifamycin VIII] | > 4
